Test results published in PubChem BioAssay AID248 (DTP/NCI, 2004).
The list is a part of this screen's results and no random one: it is rich in T/C values a quarter to a half above the control, in often repeated tests (any T/C) and in doses without a T/C. Further doses and runs are listed elsewhere. T/C: endpoint of the treated group in % of that of the vehicle group. Some doses have a count of surviving animals in place of a T/C: the source files T/C as zero there, which appears to mark a toxic dose or a test without result, not a measured value. Some survivor counts are full or nearly so, which does not show that the dose was tolerated: survival well below the control is almost never listed, so the zero probably covers shortened survival too. Survivors were counted at the toxicity check, usually on the fifth day, unless a day is given; later deaths do not show. Schedule codes are those of the source, taken here to give the interval after Q, in days (D) or hours (H), and the number of doses after X. Some entries were tested several times; the values are given in rising order. Where survival is the endpoint, this PubChem deposit counts one and a half times the control or more as active, and values a quarter to a half above the control carry no call in these data; other NCI protocols may use other cut-offs. Some T/C values carry the count of animals alive at the toxicity check (mostly the fifth day); where none is given, no animal had died by that day.

Tested on: L1210 leukemia ip in BDF1 mice, survival T/C
Experiment: NCI In Vivo Anticancer Drug Screen. Data for tumor model L1210 Leukemia (intraperitoneal) in B6D2F1 (BDF1) mice
Details: T/C endpoint: mean survival time, higher T/C = longer survival
[1] = dose: 16.6 mg/kg/injection, schedule: Q01DX009 (ip), vehicle: carboxymethylcellulose (CMC)
[2] = dose: 400.0 mg/kg/injection, schedule: Q04DX003 (ip), vehicle: saline with Tween-80
[3] = dose: 400.0 mg/kg/injection, schedule: Q01DX009 (ip), vehicle: saline with Tween-80
[4] = dose: 200.0 mg/kg/injection, schedule: Q01DX009 (ip), vehicle: saline with Tween-80
[5] = dose: 400.0 mg/kg/injection, schedule: Q04DX003 (ip), vehicle: saline
[6] = dose: 100.0 mg/kg/injection, schedule: Q01DX009 (ip), vehicle: saline with Tween-80
[7] = dose: 25.0 mg/kg/injection, schedule: Q04DX002 (ip), vehicle: saline with Tween-80
[8] = dose: 100.0 mg/kg/injection, schedule: Q04DX002 (ip), vehicle: saline with Tween-80
[9] = dose: 200.0 mg/kg/injection, schedule: Q04DX002 (ip), vehicle: saline with Tween-80
[10] = dose: 400.0 mg/kg/injection, schedule: Q04DX002 (ip), vehicle: saline with Tween-80
[11] = dose: 50.0 mg/kg/injection, schedule: Q04DX002 (ip), vehicle: saline with Tween-80
[12] = dose: 400.0 mg/kg/injection, schedule: Q04DX003 (ip), vehicle: Klucel (hydroxypropylcellulose) (HPC)

Q: CCOC(=O)Cc1c[nH]c2ccc(N(CCCl)CCCl)cc12 was tested. Which T/C (dose: 0.28 mg/kg/injection, schedule: Q01DX009 (ip), vehicle: carboxymethylcellulose (CMC)) did it give?
A: 128 % of control

Q: What about the T/C (dose: 0.7 mg/kg/injection, schedule: Q01DX009 (ip), vehicle: carboxymethylcellulose (CMC)) of the same molecule?
A: 140 % of control

Q: And the T/C (dose: 1.1 mg/kg/injection, schedule: Q01DX009 (ip), vehicle: carboxymethylcellulose (CMC))?
A: 140 % of control [4 of 6 alive]

Q: And the T/C (dose: 2.2 mg/kg/injection, schedule: Q01DX009 (ip), vehicle: carboxymethylcellulose (CMC))?
A: 145 % of control

Q: And the T/C (dose: 4.8 mg/kg/injection, schedule: Q01DX009 (ip), vehicle: carboxymethylcellulose (CMC))?
A: 128 % of control

Q: And the T/C (dose: 11.0 mg/kg/injection, schedule: Q01DX009 (ip), vehicle: carboxymethylcellulose (CMC))?
A: 126 % of control

Q: And the T/C (dose: 11.1 mg/kg/injection, schedule: Q01DX001 (ip), vehicle: carboxymethylcellulose (CMC))?
A: 125 % of control

Q: What about the T/C (dose: 16.6 mg/kg/injection, schedule: Q01DX001 (ip), vehicle: carboxymethylcellulose (CMC)) of the same molecule?
A: 138 % of control

Q: What about the T/C [1] of the same molecule?
A: 127 % of control

Q: What about the survivor count [1] of the same molecule?
A: 6 of 6

Q: And the T/C (dose: 25.0 mg/kg/injection, schedule: Q01DX001 (ip), vehicle: carboxymethylcellulose (CMC))?
A: 130 % of control

Q: What about the survivor count (dose: 25.0 mg/kg/injection, schedule: Q01DX009 (ip), vehicle: carboxymethylcellulose (CMC)) of the same molecule?
A: 0 of 6 and 3 of 6

Q: And the survivor count (dose: 37.5 mg/kg/injection, schedule: Q01DX009 (ip), vehicle: carboxymethylcellulose (CMC))?
A: 1 of 6

Q: What about the survivor count (dose: 50.0 mg/kg/injection, schedule: Q01DX001 (ip), vehicle: carboxymethylcellulose (CMC)) of the same molecule?
A: 2 of 4

Q: What about the survivor count (dose: 100.0 mg/kg/injection, schedule: Q01DX001 (ip), vehicle: carboxymethylcellulose (CMC)) of the same molecule?
A: 2 of 4

Q: For COc1ccc(C(CC(=O)c2ccccc2)SCCN2CCOCC2)cc1 (stereo not drawn), which survivor count [2] is on record?
A: 4 of 6

Q: For N#CCCC1CCCCC1=O (stereo not drawn), which survivor count [3] is on record?
A: 3 of 6

Q: For C#CCNCc1ccccc1, which survivor count [4] is on record?
A: 0 of 6 and 1 of 3

Q: What about the survivor count (dose: 400.0 mg/kg/injection, schedule: Q04DX002 (ip), vehicle: saline) of the same molecule?
A: 0 of 3 and 0 of 6

Q: And the survivor count [5]?
A: 2 of 6

Q: Which survivor count (dose: 150.0 mg/kg/injection, schedule: Q01DX001 (ip), vehicle: saline) does the source give for NC(N)=N/N=C/c1cc(Cl)cc(Cl)c1O here?
A: 2 of 6

Q: What about the survivor count (dose: 300.0 mg/kg/injection, schedule: Q01DX001 (ip), vehicle: saline) of the same molecule?
A: 0 of 6

Q: C1CC[N+]2=C(C1)OCCC2 was tested. Which T/C (dose: 100.0 mg/kg/injection, schedule: Q01DX009 (ip), vehicle: saline) did it give?
A: 133 % of control

Q: And the T/C (dose: 200.0 mg/kg/injection, schedule: Q01DX009 (ip), vehicle: saline)?
A: 128 % of control

Q: What about the survivor count (dose: 400.0 mg/kg/injection, schedule: Q01DX009 (ip), vehicle: saline) of the same molecule?
A: 0 of 6

Q: With CC(=O)O[C@H]1[C@H]2O[C@]23[C@@H]2CC[C@@H]4C[C@@H](O)CC[C@]4(C)[C@H]2CC[C@]3(C)[C@H]1c1ccc(=O)oc1 as the molecule, how does the survivor count (dose: 15.0 mg/kg/injection, schedule: Q01DX009 (ip), vehicle: Klucel (hydroxypropylcellulose) (HPC)) read?
A: 6 of 6

Q: And the survivor count (dose: 30.0 mg/kg/injection, schedule: Q01DX009 (ip), vehicle: Klucel (hydroxypropylcellulose) (HPC))?
A: 3 of 6

Q: What about the survivor count (dose: 30.0 mg/kg/injection, schedule: Q04DX003 (ip), vehicle: Klucel (hydroxypropylcellulose) (HPC)) of the same molecule?
A: 1 of 6

Q: And the survivor count (dose: 40.0 mg/kg/injection, schedule: Q01DX001 (ip), vehicle: other)?
A: 2 of 4

Q: What about the survivor count (dose: 50.0 mg/kg/injection, schedule: Q01DX001 (ip), vehicle: other) of the same molecule?
A: 0 of 4

Q: And the survivor count (dose: 60.0 mg/kg/injection, schedule: Q04DX003 (ip), vehicle: Klucel (hydroxypropylcellulose) (HPC))?
A: 0 of 6

Q: And the survivor count (dose: 80.0 mg/kg/injection, schedule: Q01DX001 (ip), vehicle: other)?
A: 0 of 4

Q: What about the survivor count (dose: 100.0 mg/kg/injection, schedule: Q01DX001 (ip), vehicle: other) of the same molecule?
A: 0 of 4

Q: And the survivor count (dose: 120.0 mg/kg/injection, schedule: Q04DX003 (ip), vehicle: Klucel (hydroxypropylcellulose) (HPC))?
A: 0 of 6

Q: And the survivor count (dose: 200.0 mg/kg/injection, schedule: Q01DX001 (ip), vehicle: other)?
A: 0 of 4

Q: And the survivor count (dose: 400.0 mg/kg/injection, schedule: Q01DX001 (ip), vehicle: other)?
A: 0 of 4

Q: Which results are given for CCCCC(CCCC)c1ccccn1?
A: survivor count [6]: 3 of 6; survivor count [4]: 3 of 6; survivor count [3]: 0 of 6

Q: With CN(C)c1ccc(/C=C/C(=O)Cc2ccccc2)cc1 as the molecule, how does the survivor count [7] read?
A: 3 of 3

Q: O=S1(=O)CCCC1C(O)(c1ccccc1)c1ccccc1 (stereo not drawn) was tested. Which survivor count [6] did it give?
A: 6 of 6

Q: And the survivor count [4]?
A: 6 of 6

Q: What about the survivor count [3] of the same molecule?
A: 6 of 6

Q: For O=CNc1ccccc1.[Hg], which survivor count (dose: 12.5 mg/kg/injection, schedule: Q04DX003 (ip), vehicle: saline with Tween-80) is on record?
A: 1 of 6

Q: What about the survivor count (dose: 25.0 mg/kg/injection, schedule: Q04DX003 (ip), vehicle: saline with Tween-80) of the same molecule?
A: 0 of 6

Q: What about the survivor count [8] of the same molecule?
A: 0 of 3

Q: And the survivor count [9]?
A: 0 of 3

Q: And the survivor count [10]?
A: 0 of 3

Q: For O=c1c(Cl)c(C(Cl)(Cl)Cl)[nH]c2ccccc12, which survivor count (dose: 100.0 mg/kg/injection, schedule: Q01DX001 (ip), vehicle: saline with Tween-80) is on record?
A: 0 of 6

Q: With Fc1c(F)c(F)[c]([Hg][c]2c(F)c(F)c(F)c(F)c2F)c(F)c1F as the molecule, how does the survivor count [11] read?
A: 3 of 3

Q: And the survivor count [8]?
A: 0 of 3

Q: And the survivor count [9]?
A: 0 of 3

Q: What about the survivor count [10] of the same molecule?
A: 0 of 3

Q: Which survivor count [12] does the source give for CN1CCC(OC(=O)C(O)C2CCCCC2)CC1 (stereo not drawn) here?
A: 1 of 6

Q: For c1ccc(Cc2ccncc2)cc1, which survivor count [3] is on record?
A: 0 of 6

Q: For CC(C)(O)CCC1=C(O)c2ccccc2C(=O)C1=O, which survivor count [12] is on record?
A: 2 of 6

Q: Which survivor count [2] does the source give for C1CC[N-]CC1.Oc1ccccc1C=NCCN=Cc1ccccc1O.[CH3-].[Rh+2] here?
A: 3 of 6

Q: [N-]=[N+]=Nc1ccc(Cl)cc1C(=O)c1ccccc1 was tested. Which survivor count (dose: 200.0 mg/kg/injection, schedule: Q04DX003 (ip), vehicle: saline) did it give?
A: 0 of 6

Q: And the survivor count [5]?
A: 0 of 6

Q: For CCCCCCCCCCCCCCCCCC[P+](CCCC)(CCCC)CCCC, which survivor count (dose: 12.5 mg/kg/injection, schedule: Q04DX002 (ip), vehicle: saline with Tween-80) is on record?
A: 2 of 3

Q: And the survivor count [7]?
A: 0 of 3

Q: What about the survivor count [11] of the same molecule?
A: 0 of 3

Q: And the survivor count [8]?
A: 0 of 3

Q: What about the survivor count [9] of the same molecule?
A: 0 of 3

Q: And the survivor count [10]?
A: 0 of 3

Q: O=[N+]([O-])n1cnnc1-c1ccccc1 was tested. Which survivor count (dose: 100.0 mg/kg/injection, schedule: Q04DX003 (ip), vehicle: gum acacia) did it give?
A: 5 of 6

Q: And the survivor count (dose: 200.0 mg/kg/injection, schedule: Q04DX003 (ip), vehicle: gum acacia)?
A: 0 of 6

Q: What about the survivor count (dose: 400.0 mg/kg/injection, schedule: Q04DX003 (ip), vehicle: gum acacia) of the same molecule?
A: 0 of 6
